Here are results for one compound from US8975245B2, “Anaesthetic formulation” (Drawbridge Pharmaceuticals Pty Ltd, priority 2010, dated 2015).

Structures are written as SMILES.

A short description of data set [1]: Ceiling toxicity: calculated plasma levels and clearance of alphaxalone.
The test system of a further data set is human volunteers. Conditions: expected.
Where [2] appears, read: iv, (7) sulfobutyl ether β-cyclodextrin/alphaxalone formulation.

Take `CC(=O)[C@H]1CC[C@H]2[C@@H]3CC[C@H]4C[C@H](O)CC[C@]4(C)[C@H]3C(=O)C[C@]12C` [alphaxalone, 3-α-hydroxy-5-α-,pregnan-11,20-dione]: the “plasma level of drug needed to cause sleep (dose administered as Althesin/plasma volume)” value in data set [1] (4.3 mg/kg, plasma volume 31 ml/kg, instantaneous mixing) is 140000 ng/mL. In addition, the “plasma concentration expected when the blood has circulated to mix the drug (30%)” value in data set [1] (30% of theoretical maximum) was 46000 ng/mL. Further, in data set [1] (repeated 5 mg/kg PhaxanCD doses), the “concentration in plasma at equilibrium” value was “approximately 0.04 mg/ml”. Moreover, the “plasma clearance rate at equilibrium” value in data set [1] (repeated 5 mg/kg PhaxanCD doses, 5 mg/kg/4.2 min) is given as 30 mls/kg/min. Also, in data set [1] (single iv bolus, 65% of total), the “level of free unbound alphaxalone in the plasma associated with anaesthesia induction” value is 30000 ng/mL. For the same compound, the “pharmacokinetics after intravenous administration” value with human volunteers (compared with Althesin administration) is “the same as for the alphaxalone figures in the literature”. Moreover, in the data set on human volunteers (setting [2]), the “BIS value achievable in one arm/brain circulation time” value is < 50 and the pain on injection entry is given as “no pain on injection”. The “speed and quality of recovery after the induction dose, versus propofol” value with human volunteers (iv) is on record as “faster”.
